Data on one molecule can be found in article doi:10.1101/2025.02.01.636034.

The test concerns the target FLAG-HHARI (Human homolog of Ariadne, wild type) (human), Q9Y4X5. The experiment in a line: co-IP. Particulars: remark: other sources report otherwise.

Results are given in words; binding and its absence hold for the method and conditions named. Binding seen in cells or lysates may run through a third protein. Some results given as binding are weak or reduced against the parent protein; the word gives no strength. Tags and fused reporters may be left off the sequences shown.

B1: HA-RIG-I (Retinoic Acid-Inducible Gene I), O95786 1-925 (protein)
chain: MTTEQRRSLQAFQDYIRKTLDPTYILSYMAPWFREEEVQYIQAEKNNKGPMEAATLFLKFLLELQEEGWFRGFLDALDHAGYSGLYEAIESWDFKKIEKLEEYRLLLKRLQPEFKTRIIPTDIISDLSECLINQECEEILQICSTKGMMAGAEKLVECLLRSDKENWPKTLKLALEKERNKFSELWIVEKGIKDVETEDLEDKMETSDIQIFYQEDPECQNLSENSCPPSEVSDTNLYSPFKPRNYQLELALPAMKGKNTIICAPTGCGKTFVSLLICEHHLKKFPQGQKGKVVFFANQIPVYEQQKSVFSKYFERHGYRVTGISGATAENVPVEQIVENNDIIILTPQILVNNLKKGTIPSLSIFTLMIFDECHNTSKQHPYNMIMFNYLDQKLGGSSGPLPQVIGLTASVGVGDAKNTDEALDYICKLCASLDASVIATVKHNLEELEQVVYKPQKFFRKVESRISDKFKYIIAQLMRDTESLAKRICKDLENLSQIQNREFGTQKYEQWIVTVQKACMVFQMPDKDEESRICKALFLYTSHLRKYNDALIISEHARMKDALDYLKDFFSNVRAAGFDEIEQDLTQRFEEKLQELESVSRDPSNENPKLEDLCFILQEEYHLNPETITILFVKTRALVDALKNWIEGNPKLSFLKPGILTGRGKTNQNTGMTLPAQKCILDAFKASGDHNILIATSVADEGIDIAQCNLVILYEYVGNVIKMIQTRGRGRARGSKCFLLTSNAGVIEKEQINMYKEKMMNDSILRLQTWDEAVFREKILHIQTHEKFIRDSQEKPKPVPDKENKKLLCRKCKALACYTADVRVIEECHYTVLGDAFKECFVSRPHPKPKQFSSFEKRAKIFCARQNCSHDWGIHVKYKTFEIPVIKIESFVVEDIATGVQTLYSKWKDFHFEKIPFDPAEMSK
Turning to B1, the binding entry is “binds”.
